The data set can be described thus: general procedure: solution-phase peptide synthesis; HATU, DIPEA.

Where no end group is shown, it is not given here. The star is where a group is joined. Fmoc = O=C(OCC1c2ccccc2-c2ccccc21)*; OtBu = CC(C)(C)O*

As for “Fmoc-Gly-Gly-Phe-Gly-methoxy-N-methylaminoacetyl exatecan”, the conjugation yield (conjugation step) is 50%.

On to “Fmoc-Gly-Gly-Phe-Gly-N-hydroxymethylacetate”, for which, under “late stage modification step”, the step yield was determined as 59%.

The substance “Gly-Gly-Phe-Gly-methoxy-N-methylaminoacetyl exatecan” showed a step yield (late stage modification step) of 100%.

In turn, “mc-Gly-Gly-Phe-Gly-methoxy-N-methylaminoacetyl exatecan” returned a step yield (late stage modification step) of 30% yield.

The substance Fmoc-GGFGG showed a step yield (late stage modification step) of 90%.

Substance Fmoc-GGFGG-OtBu showed a step yield (coupling step) of 79%.

The values are drawn from patent EP4541796A1 (Hangzhou Adcoris Biopharma Co., Ltd, priority 2022, dated 2024).
